From PMC7873015
Results are given in words; binding and its absence hold for the method and conditions named. Binding seen in cells or lysates may run through a third protein. Binding can be weak; no strength is given.

Molecular target: T1, receptor-interacting protein 3 (RIP3) (rat (endogenous in H9c2)) (UniProt Q9Z2P5)
T1 sequence: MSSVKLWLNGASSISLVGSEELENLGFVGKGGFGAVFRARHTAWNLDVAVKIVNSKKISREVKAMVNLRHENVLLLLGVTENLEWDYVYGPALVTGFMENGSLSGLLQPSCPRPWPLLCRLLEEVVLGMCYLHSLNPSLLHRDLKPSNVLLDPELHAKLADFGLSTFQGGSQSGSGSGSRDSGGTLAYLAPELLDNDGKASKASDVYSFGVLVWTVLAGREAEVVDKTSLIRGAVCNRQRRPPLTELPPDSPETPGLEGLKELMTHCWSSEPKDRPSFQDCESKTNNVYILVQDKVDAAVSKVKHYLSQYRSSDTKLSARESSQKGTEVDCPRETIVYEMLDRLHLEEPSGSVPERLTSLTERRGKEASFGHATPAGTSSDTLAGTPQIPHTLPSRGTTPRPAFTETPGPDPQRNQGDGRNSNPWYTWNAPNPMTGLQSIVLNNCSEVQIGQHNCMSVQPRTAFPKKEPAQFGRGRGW
Assay: co-IP; endogenous RIP3 immunoprecipitated with anti-RIP3 (normal rabbit IgG as control) from lysates of H9c2 cells treated with DMSO or the indicated concentrations of vinblastine for 48 h; protein A/G-agarose beads, 4 °C overnight; immunoblot with a RIP1 antibody

binding: binds
Substance: receptor-interacting protein 1 (RIP1) (rat (endogenous in H9c2))
